In patent US20140128402A1, “PHARMACEUTICAL COMBINATION” (IPCA Laboratories Limited, priority 2011, published 2014):
At least one structure is not confirmed: it was looked up by name or label, or the drawing left a doubt.

Experiments:
Type in all cases: in vivo, Wistar rats
[1] = test system: STZ induced diabetic rats; assay: Study No 2: blood glucose in STZ induced diabetic rats (HCQ with vildagliptin and saxagliptin); details: alone at therapeutic equivalent doses; day 28
[2] = test system: STZ-induced diabetic rats; assay: Study No 2: biochemical parameters in STZ-induced diabetic rats; details: p≦0.05
[3] = test system: STZ-induced diabetic rats; assay: Study No 2: body weight, water intake and food intake in STZ-induced diabetic rats; details: monotherapies; p≦0.05
[4] = monotherapies, all the tested dose levels except HCQ (22.5 mg/kg)

Q: N#C[C@@H]1C[C@@H]2C[C@@H]2N1C(=O)[C@@H](N)C12CC3CC(CC(O)(C3)C1)C2 [SG, Saxagliptin] was tested. Which “blood glucose levels as compared to diabetic control group” value [1] did it give?
A: significant improvement

Q: And the “HbA1c levels as compared to diabetic control” value ([2]; all tested doses, 28 days)?
A: significantly (p≦0.05) reduced

Q: And the “total protein level as compared to the diabetic control group” value ([2]; monotherapies at all doses, 28 days)?
A: significant rise

Q: What about the “creatinine levels as compared to diabetic control group” value [2, 4] of the same molecule?
A: significant reduction

Q: What about the “urea levels as compared to diabetic control group” value [2, 4] of the same molecule?
A: significant reduction

Q: And the “body weight as compared to diabetic control group” value [3]?
A: reduction was significantly less
